According to US20140308201A1:
Substitutions are numbered along the chain they refer to. No constants are given. Whether binding was seen depends on the method and setting. For part of these data: Binding calls can cover weak binding; strength is not graded here.

B1: mAb12433 (antibody, human IgG1, kappa, V domains shown)
VH: QVQLVQSGAEVKKPGESLKISCKGSGYSFTNYYIHWVRQMPGKGLEWMGAIYPDNSDTTYSPSFQGQVTISADKSISTAYLQWSSLKASDTAMYYCARGADIWGQGTLVTVSS
VL: DIQMTQSPSSLSASVGDRVTITCRASQDIDPYLSNWYQQKPGKAPKLLIYDASNLQSGVPSRFSGSGSGTDFTLTISSLQPEDFATYYCQQTTSHPYTFGQGTKVEIKR
B2: mAb11725 (antibody, human IgG1, lambda, V domains shown)
VH: QVQLLESGGGLVQPGGSLRLSCAASGFTFNTYWLHWVRQAPGKGLEWVSVISSDSSSTYYADSVKGRFTISRDNSKNTLYLQMNSLRAEDTAVYYCARDSRLDYWGQGTLVTVSS
VL: DIELTQPPSVSVSPGQTASITCSGDSIGDTYVDWYQQKPGQAPVLVIYDDIDRPSGIPERFSGSNSGNTATLTISGTQAEDEADYYCYVYAWTGTSNVFGGGTKLTVLG
B3: mAb12422 (antibody, human IgG1, kappa, V domains shown)
VH: QVQLVQSGAEVKKPGSSVKVSCKASGGTFSSYAISWVRQAPGQGLEWMGYISPYMGETHYAQKFQGRVTITADESTSTAYMELSSLRSEDTAVYYCARESYEYFDIWGQGTLVTVSS
VL: DIQMTQSPSSLSASVGDRVTITCRASQSISNDLAWYQQKPGKAPKLLIYATSILQSGVPSRFSGSGSGTDFTLTISSLQPEDFATYYCLQYYDYSYTFGQGTKVEIKR
B4: mAb12439 (antibody, human IgG1, kappa, V domains shown)
VH: QVQLVQSGAEVKKPGASVKVSCKASGYTFTSYDISWVRQAPGQGLEWMGWINPYNGGTNYAQKFQGRVTMTRDTSISTAYMELSRLRSEDTAVYYCAREGSGMIVYPGWSYAFDYWGQGTLVTVSS
VL: B3 VL with S28D, A34G, T51A, I53S, L89Q, Y91H, D93H, Y94T, S95P, Y96N

Legend:
[1] = molecular target: Rat FGFR2 IIIb D1-3 (rat); assay: SPR Biacore
[2] = molecular target: Mouse FGFR2 IIIb D1-3 (mouse); assay: SPR Biacore
[3] = molecular target: Human FGFR2 IIIb D1-3 (human); assay: SPR Biacore
[4] = molecular target: Human FGFR2 IIIb D1-3 (human); assay: screening of panning outputs for specificity and cross-reactivity (assays of Example 1)
[5] = molecular target: Human FGFR3 IIIb D1-3 (human); assay: SPR Biacore, IgG captured via anti-human Fc
[6] = molecular target: Human FGFR1 IIIb D1-3 (human); assay: SPR Biacore, IgG captured via anti-human Fc
[7] = molecular target: Human FGFR2 IIIc D1-3 (human); assay: screening of panning outputs for specificity and cross-reactivity (assays of Example 1)

Binder	binding [1]	binding [2]	binding [3]	binding [4]	binding [5]	binding [6]	binding [7]
B1	binds	binds	binds	binds	no binding (tested: 0.078-100 nM FGFR injected)	no binding (tested: 0.078-100 nM FGFR injected)	
B2	binds	binds	binds	binds	no binding (tested: 0.078-100 nM FGFR injected)	no binding (tested: 0.078-100 nM FGFR injected)	binds
B3	binds	binds	binds	binds	no binding (tested: 0.078-100 nM FGFR injected)	no binding (tested: 0.078-100 nM FGFR injected)	binds
B4	binds	binds	binds	binds	no binding (tested: 0.078-100 nM FGFR injected)	no binding (tested: 0.078-100 nM FGFR injected)	binds
